Source: patent publication US10881060B2, “Endophytes and related methods” (Agriculture Victoria Services PTY LTD, priority 2010, dated 2021)

Test system: tall fescue
Assay: Metabolic profiling of tall fescue-endophyte associations in the endogenous host (LCMS alkaloid profile)
Type: in vivo, Lolium arundinaceum
Parameters: key to Alkaloid profile Peramine / Alkaloid profile Lolines / Alkaloid profile Lolitrem B: +Alkaloid present; − Alkaloid absent; key to Alkaloid profile Ergovaline: +^L: ^L= Low; +^M: ^M= Medium; +^H: ^H= High
Conditions: Table 15, pseudostem

Compound | Alkaloid profile Lolines (qualitative) | Alkaloid profile Lolitrem B (qualitative) | Alkaloid profile Ergovaline (relative quantitation of ergovaline levels) | Alkaloid profile Peramine (qualitative)
Cn1c(CCCN=C(N)N)cn2cccc2c1=O [compound 1, peramine] | + | − | +^M | 
11,12-epoxy janthitrem G [compound 4] |  |  |  | +

Some results come without the dose or concentration used.
